Source: publication PMC4136804
These are yes or no findings as the source states them, for the method shown. In cells and extracts the contact can be indirect. Binding calls can cover weak binding; strength is not graded here. Sequences can lack the tags named with a protein.

Biological target: T1, myc-tagged full-length ZNF198 (human) (UniProt Q9UBW7)
T1 sequence: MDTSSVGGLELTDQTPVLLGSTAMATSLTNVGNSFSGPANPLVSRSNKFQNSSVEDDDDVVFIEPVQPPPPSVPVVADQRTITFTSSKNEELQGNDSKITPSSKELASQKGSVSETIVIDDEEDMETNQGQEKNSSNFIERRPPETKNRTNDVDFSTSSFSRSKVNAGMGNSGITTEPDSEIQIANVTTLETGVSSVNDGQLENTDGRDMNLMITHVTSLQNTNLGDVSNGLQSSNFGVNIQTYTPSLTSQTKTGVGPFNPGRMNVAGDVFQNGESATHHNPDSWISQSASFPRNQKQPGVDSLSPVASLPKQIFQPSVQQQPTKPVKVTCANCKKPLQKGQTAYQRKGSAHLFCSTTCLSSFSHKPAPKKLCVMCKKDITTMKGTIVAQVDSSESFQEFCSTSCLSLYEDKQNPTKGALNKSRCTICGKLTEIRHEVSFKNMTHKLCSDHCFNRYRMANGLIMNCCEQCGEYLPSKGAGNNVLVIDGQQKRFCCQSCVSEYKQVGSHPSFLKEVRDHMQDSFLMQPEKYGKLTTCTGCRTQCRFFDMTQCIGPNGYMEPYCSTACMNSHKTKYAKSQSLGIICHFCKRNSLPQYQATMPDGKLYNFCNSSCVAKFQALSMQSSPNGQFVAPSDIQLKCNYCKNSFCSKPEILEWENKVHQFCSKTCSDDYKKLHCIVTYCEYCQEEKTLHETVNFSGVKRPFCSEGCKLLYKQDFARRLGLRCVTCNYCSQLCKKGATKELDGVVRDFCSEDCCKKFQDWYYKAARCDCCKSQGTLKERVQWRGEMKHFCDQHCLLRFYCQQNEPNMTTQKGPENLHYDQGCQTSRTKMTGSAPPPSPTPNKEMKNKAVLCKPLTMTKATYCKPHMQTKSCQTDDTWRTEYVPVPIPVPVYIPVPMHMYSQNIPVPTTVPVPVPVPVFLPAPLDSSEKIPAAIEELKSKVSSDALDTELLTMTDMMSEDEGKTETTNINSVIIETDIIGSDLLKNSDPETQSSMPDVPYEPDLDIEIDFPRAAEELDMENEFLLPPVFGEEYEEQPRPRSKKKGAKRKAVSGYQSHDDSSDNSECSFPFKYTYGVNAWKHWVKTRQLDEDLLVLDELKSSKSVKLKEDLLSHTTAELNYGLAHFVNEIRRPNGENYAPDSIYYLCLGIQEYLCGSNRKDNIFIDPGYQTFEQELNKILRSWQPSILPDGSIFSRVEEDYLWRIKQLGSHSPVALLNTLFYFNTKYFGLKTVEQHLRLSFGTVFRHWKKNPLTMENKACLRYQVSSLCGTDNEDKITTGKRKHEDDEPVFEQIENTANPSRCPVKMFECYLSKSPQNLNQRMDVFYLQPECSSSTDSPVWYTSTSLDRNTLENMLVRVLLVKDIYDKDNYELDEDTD
Assay: co-IP; myc-tagged ZNF198 and FLAG-tagged PML co-expressed in U2OS cells; anti-myc or anti-FLAG agarose; blots with anti-myc and anti-PML

binding: binds
Substance: FLAG-tagged PML (isoform III)
